Experimental data from publication PMC5392680.
These are yes or no findings as the source states them, for the method shown. Binding seen in cells or lysates may run through a third protein. Some binding calls cover weakened binding; strength is not graded here. Tags and fused reporters may be left off the sequences shown.

Protein sequences, listed by entry. Tags and fused reporters are not part of them.
UniProt P63208: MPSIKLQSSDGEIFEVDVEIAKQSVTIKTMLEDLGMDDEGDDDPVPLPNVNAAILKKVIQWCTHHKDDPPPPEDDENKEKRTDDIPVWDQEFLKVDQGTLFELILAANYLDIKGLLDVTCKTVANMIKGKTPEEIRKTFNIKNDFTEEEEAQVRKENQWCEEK

Columns and labels:
[1] = target: T1, cyclin F, endogenous in CEM-GFP T cells (human (endogenous in CEM-GFP)) (UniProt P41002); assay: co-IP; HIV-1 NL4-3-infected (0.5 m.o.i.) CEM-GFP cells harvested 72 h post-infection, endogenous proteins; IP with cyclin F or Vif antibody, protein A- and G-agarose beads, immunoblot
T1 sequence: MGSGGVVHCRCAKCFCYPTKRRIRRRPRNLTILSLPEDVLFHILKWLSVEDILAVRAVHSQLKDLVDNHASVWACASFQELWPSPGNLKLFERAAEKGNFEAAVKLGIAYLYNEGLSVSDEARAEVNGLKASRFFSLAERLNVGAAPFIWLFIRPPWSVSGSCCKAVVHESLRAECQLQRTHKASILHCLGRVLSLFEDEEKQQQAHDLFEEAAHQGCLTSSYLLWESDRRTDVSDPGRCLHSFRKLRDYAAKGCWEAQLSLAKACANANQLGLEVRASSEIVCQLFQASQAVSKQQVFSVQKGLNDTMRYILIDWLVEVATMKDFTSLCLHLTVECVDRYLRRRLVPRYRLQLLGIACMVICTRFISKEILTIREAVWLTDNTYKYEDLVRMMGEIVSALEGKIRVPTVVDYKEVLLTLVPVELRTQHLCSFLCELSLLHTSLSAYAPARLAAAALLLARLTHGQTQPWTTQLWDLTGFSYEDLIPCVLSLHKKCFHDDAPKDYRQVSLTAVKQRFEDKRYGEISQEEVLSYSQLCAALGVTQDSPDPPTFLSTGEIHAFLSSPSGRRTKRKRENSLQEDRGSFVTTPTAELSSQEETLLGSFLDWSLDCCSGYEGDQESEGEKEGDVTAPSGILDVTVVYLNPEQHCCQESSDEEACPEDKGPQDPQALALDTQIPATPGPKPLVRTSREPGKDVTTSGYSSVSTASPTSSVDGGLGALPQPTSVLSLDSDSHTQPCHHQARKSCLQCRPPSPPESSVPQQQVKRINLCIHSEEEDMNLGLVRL

[2] = target: T2, FLAG-cyclin F (pCMV-FLAG-cyclin F) (human) (UniProt P41002); assay: co-IP; HEK293T cells co-transfected with cyclin F and wild-type or CY Mut Vif constructs, lysates 48 h post-transfection; IP with cyclin F or Vif antibody, protein A- and G-agarose beads, immunoblot
T2 sequence: T1 sequence

Substance	binding [1]	binding [2]
Skp1, endogenous in CEM-GFP T cells (from UniProt P63208 1-163)	binds	–
Skp1, endogenous in HEK293T cells (from UniProt P63208 1-163)	–	binds
